Experimental data as given in PubChem BioAssay AID1671190 (National Center for Advancing Translational Sciences (NCATS), 2021).
Out of some 580,000 compounds screened, about 6,100 (1.1%) were called active. Inconclusive results, whose numbers are uncertain, are shown with a selection of clear calls. Calls come from the whole dose curve; as a rule, active = well fitted inhibition curve with a large enough effect; inconclusive = small, poorly fitted or top-dose-only effect, or another doubt; inactive = no such curve, though single readings can be large or run the other way. Where the call is inconclusive, the potency comes from a doubtful curve fit.

Sequences of proteins named here, by UniProt entry; tags and fusion partners are left off. A change or cut given only in a name is not applied to a line headed by its entry.
UniProt P18054: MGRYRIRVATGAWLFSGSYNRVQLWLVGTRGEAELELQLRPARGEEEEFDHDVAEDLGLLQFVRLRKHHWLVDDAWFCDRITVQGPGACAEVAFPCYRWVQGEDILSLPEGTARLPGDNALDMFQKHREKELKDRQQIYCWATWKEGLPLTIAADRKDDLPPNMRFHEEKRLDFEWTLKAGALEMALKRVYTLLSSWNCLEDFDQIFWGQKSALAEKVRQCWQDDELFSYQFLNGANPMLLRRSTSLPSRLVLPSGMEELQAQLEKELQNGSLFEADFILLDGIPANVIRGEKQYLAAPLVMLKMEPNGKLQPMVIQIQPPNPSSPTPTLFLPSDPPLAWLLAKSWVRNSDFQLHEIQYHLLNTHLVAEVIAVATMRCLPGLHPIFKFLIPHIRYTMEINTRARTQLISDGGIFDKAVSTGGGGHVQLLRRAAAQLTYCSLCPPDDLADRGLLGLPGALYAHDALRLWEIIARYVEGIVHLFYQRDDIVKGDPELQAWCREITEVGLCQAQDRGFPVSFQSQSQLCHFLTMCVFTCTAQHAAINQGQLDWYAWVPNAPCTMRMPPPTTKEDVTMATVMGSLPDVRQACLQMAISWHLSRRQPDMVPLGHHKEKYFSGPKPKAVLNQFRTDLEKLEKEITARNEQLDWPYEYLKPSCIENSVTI

biological target: Polyunsaturated fatty acid lipoxygenase ALOX12 (Homo sapiens) (UniProt P18054); assay: Primary qHTS assay for inhibitors of human arachidonate 12S-lipoxygenase (ALOX12): Round 2; conditions: purified 12hLO, xylenol orange hydroperoxide absorbance; activity change, negative = inhibition: at 108 µM (top of the series) unless noted
How it was run: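 Hydroperoxide product was detected by ferrous iron/xylenol orange as the 573 to 405 nm absorbance ratio. Arachidonic acid at 40 uM (final) was turned over for 30 min at room temperature by 150 nM human 12hLO, pH 7.0 Hepes buffer, after 15 min compound preincubation.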
% is set by controls: 0 for no effect and ±100 for the full control effect; potency is the fitted concentration of half-maximal effect.

Row | SMILES | Potency | activity change, negative = inhibition
1 | O=C(O)CO | inconclusive: 70.8 µM [inhibitor, partial curve, poor fit] | 
2 | O=C(CSCc1ccc(Cl)cc1)Nc1ccc(Br)cc1C(=O)O | inconclusive: 44.7 µM [inhibitor, partial curve, poor fit] | 
3 | Cc1ccc2c(ccn2CCC(=O)Nc2nnc(C3CC3)s2)c1 | inactive | 
4 | O=C(C[C@@H]1CCNC[C@@H]1Cc1cc(-c2ccc(F)cc2)on1)Nc1ccccc1 | inconclusive: 28.2 µM [inhibitor, full curve, poor fit] | 
5 | CC1=C(C(N)=O)C(c2ccc(C)cc2)n2nc(SCc3ccccc3F)nc2N1 (centres undefined) | inconclusive: 89.1 µM [inhibitor, partial curve, poor fit] | 
6 | Cc1[nH]nc2c(=S)[nH]c(=O)[nH]c12 | inconclusive: 56.2 µM [inhibitor, partial curve, poor fit] | 
7 | O=C(COC(=O)Cn1cc(C(F)(F)F)ccc1=O)Nc1ccc(Br)cc1F | inconclusive: 35.5 µM [inhibitor, single point] | 
8 | O=C1NC(C(=O)N2CCN(Cc3ccc(F)cc3F)CC2)Cn2cccc21 (centres undefined) | inactive | 
9 | CC(C)OCCCNc1ncnc2c1nc1n2CCCC1 | inactive | 
10 | CC(=O)Nc1ccccc1-c1nc2ccccc2n(CC(=O)c2ccc(Br)cc2)c1=O | inconclusive: 100 µM [inhibitor, partial curve, poor fit] | 
11 | Cc1ccc(-c2cc(C(=O)Nc3ncccc3C)c3ccccc3n2)s1 | inconclusive: 50.1 µM [inhibitor, single point] | 
12 | NS(=O)(=O)c1ccc(CCNC(=O)CCC(=O)c2cccs2)cc1 | inconclusive: 141 µM [inhibitor, single point] | 
13 | O=C(CN1CCN(CC(=O)Nc2ccccc2C(=O)c2ccccc2)CC1)Nc1ccc(F)cc1 | inactive | 
14 | CCN(Cc1ccccc1)S(=O)(=O)c1ccc(C(=O)N(CCCN(C)C)c2nc3c(F)cccc3s2)cc1 | inconclusive: 44.7 µM [inhibitor, partial curve, poor fit] | 
15 | O=C(NCCCOC1CCCCC1)c1cc(=O)[nH]c2ccccc12 | inconclusive: 56.2 µM [inhibitor, partial curve, poor fit] | 
16 | Cc1ccc(C(=O)CSc2nc3ccc(C(=O)NCCN4CCCCC4)cc3c(=O)[nH]2)cc1 | inconclusive: 112 µM [inhibitor, single point] | 
17 | O=[N+]([O-])c1ccccc1Nc1ccc(O)cc1 | inconclusive: 50.1 µM [inhibitor, partial curve, poor fit] | 
18 | C=CCOc1ccc(NC(=O)c2ccc(C(C)(C)C)cc2)cc1 | inactive | 
19 | N#Cc1ccc(Cn2c(CN3CCCCC3)nc3scc(-c4cccs4)c3c2=O)cc1 | inactive | 
20 | COc1cccc(NC(=O)N2CCc3nc(NCc4cccc(Oc5ccccc5)c4)ncc3C2)c1 | inconclusive: 44.7 µM [inhibitor, partial curve, poor fit] | 
21 | O=C(NCC1COc2ccccc2O1)c1ccccn1 (centres undefined) | inconclusive: 8.91 µM [inhibitor, partial curve, poor fit] | 
22 | CCCOc1ccc(-c2nc(C#N)c(N3CCN(Cc4ccccc4)CC3)o2)cc1 | inconclusive: 35.5 µM [inhibitor, partial curve, poor fit] | 

Row | SMILES | Potency | activity change, negative = inhibition
23 | O=C(CCN1C(=O)/C(=C/c2ccc3c(c2)OCO3)SC1=S)Nc1ccc(C(=O)O)cc1 | inconclusive: 50.1 µM [inhibitor, partial curve, poor fit] | 
24 | NC1(Cc2ccc(Cl)cc2)CCN(c2ncnc3[nH]ccc23)CC1 | inconclusive: 17.2 µM [inhibitor, partial curve, poor fit] | 
25 | Cc1ccc2cccc(Oc3ccc([N+](=O)[O-])cc3[N+](=O)[O-])c2n1 | inactive | 
26 | CCOC(=O)c1cccc(-n2c(C)nc3ccccc3c2=O)c1 | inconclusive: 100 µM [inhibitor, single point] | 
27 | Cc1ccc(CC(=O)N2CCC(c3nc4c(nnn4Cc4ccccc4)c(=O)[nH]3)CC2)cc1 | inactive | 
28 | Cc1cc(C)cc(NC2=C(c3ccccc3)C(=O)c3ccccc32)c1 |  | inconclusive: -30.5% [inhibitor]
29 | C[C@@H]1CCCCO[C@H](CN(C)C(=O)Nc2cccc3ccccc23)[C@@H](C)CN([C@H](C)CO)C(=O)c2cc(N(C)C)ccc2O1 | inactive | 
30 | CN(C)S(=O)(=O)N1CCN(C(=O)Cc2ccccc2F)CC1 | inactive | 
31 | O=C(CCCNS(=O)(=O)c1cccs1)N1CCN(c2cccc(Cl)c2)CC1 | inconclusive: 89.1 µM [inhibitor, single point] | 
32 | CS(=O)(=O)Nc1cc(-c2noc([C@@H]3CCCN3Cc3ccccc3F)n2)ccn1 | inconclusive: 39.8 µM [inhibitor, full curve] | 
33 | COc1cc(-c2nnc(-c3ccc(S(=O)(=O)c4ccccc4)cc3)o2)cc(OC)c1OC | inconclusive: 1.78 µM [inhibitor, full curve, poor fit] | 
34 | COc1ccc(Cc2nc3ccc(C(=O)N4CCC[C@H]4CO)cc3o2)cc1 | inactive | 
35 | Cc1ccc(NC(=O)c2cc3c(=O)n(Cc4ccco4)ccc3nc2C)cc1C |  | inconclusive: -41.9% [inhibitor]
36 | CN1CCCCc2c1nc1c(c2N)CCCC1 | inconclusive: 2 µM [inhibitor, full curve, poor fit] | 
37 | CC(O)CNC12CC3CC(CC(C3)C1)C2 (centres undefined) | inconclusive: 0.398 µM [inhibitor, full curve] | 
38 | OC1CN=C2CCCc3c2n(c2ccc(Cl)cc32)C1 (centres undefined) | inactive | 
39 | CC[C@@H](C)[C@@H](C(=O)Nc1ccc(C)cc1)N1Cc2ccccc2C1=O | inconclusive: 112 µM [inhibitor, partial curve, poor fit] | 
40 | C=CCn1c(N2CCN(c3ccccc3)CC2)nc2c1c(=O)n(C)c(=O)n2C | inactive | 
41 | CCCCC[C@H](C)N1C[C@H](COCc2ccccc2)Oc2cc(N3CC[C@@H](N(C)C)C3)ccc2S1(=O)=O | inconclusive: 39.8 µM [inhibitor, partial curve, poor fit] | 
42 | CCCCNC(=O)c1onc(CSc2cccc(OCC)c2)c1C(=O)O | inconclusive: 44.7 µM [inhibitor, partial curve, poor fit] | 
43 | CC1=C(CO)C(=O)O[C@@H]([C@@H](C)[C@H]2CC[C@H]3[C@@H]4C[C@H]5O[C@]56[C@@H](O)C=CC(=O)[C@]6(C)[C@@H]4CC[C@]23C)C1 | inconclusive: 27.3 µM [inhibitor, partial curve, poor fit] | 
44 | COCCCNC(=O)c1cc(C)nn1-c1ccccc1 | inconclusive: 1.78 µM [inhibitor, full curve, poor fit] | 

3 entries picked at random from those above:
Row | SMILES | Potency | activity change, negative = inhibition
40 | C=CCn1c(N2CCN(c3ccccc3)CC2)nc2c1c(=O)n(C)c(=O)n2C | inactive | 
1 | O=C(O)CO | inconclusive: 70.8 µM [inhibitor, partial curve, poor fit] | 
39 | CC[C@@H](C)[C@@H](C(=O)Nc1ccc(C)cc1)N1Cc2ccccc2C1=O | inconclusive: 112 µM [inhibitor, partial curve, poor fit] | 

More entries

Row | SMILES | Potency | activity change, negative = inhibition
45 | c1ccc(-c2cccc(N3CC4(CCNCC4)C3)c2)cc1 | inconclusive: 31.6 µM [inhibitor, single point] | 
46 | COc1ccc2c(CCNC(=O)c3ccc(F)cc3)c[nH]c2c1 | inactive | 
47 | Clc1ccc(OCCCc2nc(-c3ccncc3)no2)c(Cl)c1 | inactive | 
48 | CCCCC[C@H](C)N1C[C@@H](COCc2ccccc2)Oc2cc(N3CC[C@H](N(C)C)C3)ccc2S1(=O)=O | inconclusive: 39.8 µM [inhibitor, partial curve, poor fit] | 
49 | COc1ccc(-c2ccc(N3C(c4ccsc4)=Cc4ccc(F)cc4C3c3c[nH]c4ccccc34)cc2)cc1 (centres undefined) | inconclusive: 35.5 µM [inhibitor, partial curve, poor fit] | 
50 | CCOc1ccc(NC(=O)N(Cc2c[nH]c3ccccc23)C2CCCCCC2)cc1 | inactive | 
51 | Cc1ccc(-n2nc(C(=O)O)c3ccccc3c2=O)cc1C | inconclusive: 8.91 µM [inhibitor, full curve, poor fit] | 
52 | C/C=C/C(=O)OCc1nc2c(c(=O)[nH]c(=O)n2CCCC)n1C | inactive | 
53 | CC(=O)Oc1ccc(N2C(=O)c3cccc4c([N+](=O)[O-])ccc(c34)C2=O)cc1 | inconclusive: 5.01 µM [inhibitor, full curve, poor fit] | 
54 | COC(=O)C1=C(C)N(C)C(=NCc2ccc(C(F)(F)F)cc2)NC1c1ccc(Cl)cc1 (centres undefined) | inconclusive: 79.4 µM [inhibitor, partial curve, poor fit] | 
55 | O=C(Nc1ccc(Cl)cc1)/C(=C/c1cccc(O)c1)c1nc2ccccc2s1 | inconclusive: 50.1 µM [inhibitor, partial curve, poor fit] | 
56 | O=C(Nc1ccccc1F)N1CC(c2nnc(-c3ccncc3)o2)C2(CCOCC2)C1 (centres undefined) | inactive | 
57 | CCn1cnc2c1c(=O)n(CC(=O)NCC(C)(C)N1CCOCC1)c(=O)n2Cc1ccccc1 | inconclusive: 39.8 µM [inhibitor, partial curve, poor fit] | 
58 | CC(=O)NCCNS(=O)(=O)CCC(=O)O | inactive | 
59 | Cc1noc(C)c1COc1ccc(C(=O)Nc2ccccn2)cc1 | inconclusive: 112 µM [inhibitor, single point] | 
60 | COc1cc(CC(=O)NC2CCS(=O)(=O)C2)cc(OC)c1OC (centres undefined) | inconclusive: 1.78 µM [inhibitor, single point] | 
61 | COc1ccc(CCNC(=O)CNCC2CCCO2)cc1OC (centres undefined) | inconclusive: 0.282 µM [inhibitor, full curve, poor fit] | 
62 | Cc1ccccc1-c1cn(-c2ccccc2)c(=S)[nH]1 | inconclusive: 44.7 µM [inhibitor, partial curve, poor fit] | 
63 | Cn1c(NC(=O)c2ccc(F)cc2)c(-c2cccs2)c(=O)c2ccccc21 | inactive | 
64 | NC(=O)CCCn1c(C(=O)c2cc(Cl)c(N)c(Cl)c2)c2ccc([N+](=O)[O-])cc2[n+]1[O-] | inconclusive: 44.7 µM [inhibitor, partial curve, poor fit] | 
